Experimental data: PubChem BioAssay AID248 (DTP/NCI, 2004)
The list is a part of this screen's results and no random one: it is rich in T/C values a quarter to a half above the control, in often repeated tests (any T/C) and in doses without a T/C. Further doses and runs are listed elsewhere. T/C gives the treated animals as a percentage of the vehicle group. Some doses have a count of surviving animals in place of a T/C: the source files T/C as zero there, which appears to mark a toxic dose or a test without result, not a measured value. Some survivor counts are full or nearly so, which does not show that the dose was tolerated: the source hardly ever lists a survival T/C far under the control, and the zero likely stands for such cases as well. Survivors were counted at the toxicity check, usually on the fifth day, unless a day is given; later deaths do not show. Schedule codes are those of the source, taken here to give the interval after Q, in days (D) or hours (H), and the number of doses after X. Some schedules carry Z or #; the key to these is not given. For survival time, the PubChem record calls one and a half times the control and up active, and a quarter to a half above the control has no call in these data; cut-offs in other NCI protocols can differ. Some T/C values carry the count of animals alive at the toxicity check (mostly the fifth day); where none is given, no animal had died by that day.

Test system: L1210 leukemia ip in BDF1 mice, survival T/C
Experiment: NCI In Vivo Anticancer Drug Screen. Data for tumor model L1210 Leukemia (intraperitoneal) in B6D2F1 (BDF1) mice
Conditions: T/C endpoint: mean survival time, higher T/C = longer survival
[1] = dose: 100.0 mg/kg/injection, schedule: Q01DX009 (ip), vehicle: saline with Tween-80
[2] = dose: 200.0 mg/kg/injection, schedule: Q01DX009 (ip), vehicle: saline with Tween-80
[3] = dose: 400.0 mg/kg/injection, schedule: Q01DX009 (ip), vehicle: saline with Tween-80
[4] = dose: 100.0 mg/kg/injection, schedule: Q01DX009 (ip), vehicle: saline
[5] = dose: 100.0 mg/kg/injection, schedule: Q01DX009 (ip), vehicle: Klucel (hydroxypropylcellulose) (HPC)
[6] = dose: 200.0 mg/kg/injection, schedule: Q04DX003 (ip), vehicle: Klucel (hydroxypropylcellulose) (HPC)
[7] = dose: 400.0 mg/kg/injection, schedule: Q04DX003 (ip), vehicle: Klucel (hydroxypropylcellulose) (HPC)
[8] = dose: 150.0 mg/kg/injection, schedule: Q01DX001 (ip), vehicle: carboxymethylcellulose (CMC)
[9] = dose: 300.0 mg/kg/injection, schedule: Q01DX001 (ip), vehicle: carboxymethylcellulose (CMC)
[10] = dose: 200.0 mg/kg/injection, schedule: Q01DX001 (ip), vehicle: Klucel (hydroxypropylcellulose) (HPC)
[11] = dose: 200.0 mg/kg/injection, schedule: Q04DX003 (ip), vehicle: saline with Tween-80
[12] = dose: 200.0 mg/kg/injection, schedule: Q01DX001 (ip), vehicle: saline
[13] = dose: 400.0 mg/kg/injection, schedule: Q01DX001 (ip), vehicle: saline
[14] = dose: 100.0 mg/kg/injection, schedule: Q01DX001 (ip), vehicle: Klucel (hydroxypropylcellulose) (HPC)
[15] = dose: 400.0 mg/kg/injection, schedule: Q01DX001 (ip), vehicle: Klucel (hydroxypropylcellulose) (HPC)

For CC(=O)NC(CCSCc1c2ccccc2c(C)c2c1ccc1ccccc12)C(=O)O (configuration not stated), the survivor count [1] was 6 of 6.
For COc1c(C)c(C)c(OC(C)=O)c(C)c1COC(C)=O, the survivor count [2] was 2 of 6 and the survivor count [3] was 1 of 6.
With CC1COCC(C)N1 (configuration not stated) the survivor count [4] was 6 of 6.
Clc1ccccc1C(c1cccc2ccccc12)n1ccnc1 (configuration not stated) was tested, and the survivor count [5] was 6 of 6.
In the case of O=C(CCl)Nc1ccc(O)c2ccccc12, the survivor count (dose: 300.0 mg/kg/injection, schedule: Q01DX001 (ip), vehicle: other) is reported as 0 of 6.
With O=C(c1cccc2ccccc12)N(c1ccccc1)c1ccccc1 the survivor count [6] was 6 of 6 and the survivor count [7] was 5 of 6.
In the case of NN1Cc2ccc3c4c(ccc(c24)C1)C=C3, the survivor count (dose: 75.0 mg/kg/injection, schedule: Q01DX001 (ip), vehicle: carboxymethylcellulose (CMC)) is reported as 0 of 6, the survivor count [8] is reported as 1 of 6 and the survivor count [9] is reported as 0 of 6.
C1CCC2[N-]CC3CCCCC3[N-]CC3CCCCC3[N-]CC3CCCCC3[N-]CC2C1.[Cu] (configuration not stated) was tested, and the survivor count [10] was 0 of 3.
For N#CC(C#N)=Cc1ccnc2ccccc12, the survivor count [11] was 0 of 6 and the survivor count (dose: 400.0 mg/kg/injection, schedule: Q04DX003 (ip), vehicle: saline with Tween-80) was 0 of 6.
With NC(=O)c1ccc(OC(F)(F)C(F)Cl)cc1OC(F)(F)C(F)Cl (configuration not stated) the survivor count [11] was 0 of 6.
With CCc1ccc(C(O)C(=O)O)cc1 (configuration not stated) the survivor count (dose: 300.0 mg/kg/injection, schedule: Q01DX001 (ip), vehicle: acetone) was 2 of 6.
With O=[N+]([O-])c1cc(S(=O)(=O)F)cc(Cl)c1S the survivor count [7] was 0 of 6.
For CCCC(CN(CCN(C)C)Cc1ccccc1)c1ccc(OC)cc1 (configuration not stated), the survivor count [12] was 1 of 6 and the survivor count [13] was 0 of 6.
O=C(O)c1cccc(F)c1CBr was tested, and the survivor count [8] was 2 of 6 and the survivor count [9] was 1 of 6.
In the case of CCC(=O)OC1(c2ccccc2)CCN(C/C=C/c2ccc(F)cc2)CC1, the survivor count [1] is reported as 6 of 6, the survivor count [2] is reported as 3 of 6 and the survivor count [3] is reported as 0 of 6.
With Cc1ccccc1NC=O the survivor count [3] was 6 of 6.
CNC(=Nc1ccc(NC(=O)c2ccc(C(=O)Nc3ccc(N=C(NC)c4ccccc4)cc3)cc2)cc1)c1ccccc1 was tested, and the survivor count (dose: 30.0 mg/kg/injection, schedule: Q01DX Z (ip), vehicle: other) was 0 of 6, the survivor count (dose: 60.0 mg/kg/injection, schedule: Q01DX Z (ip), vehicle: other) was 0 of 6 and the survivor count (dose: 120.0 mg/kg/injection, schedule: Q01DX Z (ip), vehicle: other) was 0 of 6.
With COc1ccc(/C=N/n2c3ccccc3c3ccccc32)cc1OCCCN(C)C the survivor count (dose: 12.5 mg/kg/injection, schedule: Q01DX009 (ip), vehicle: saline) was 6 of 6, the survivor count (dose: 25.0 mg/kg/injection, schedule: Q01DX009 (ip), vehicle: saline) was 6 of 6 and the survivor count (dose: 50.0 mg/kg/injection, schedule: Q01DX009 (ip), vehicle: saline) was 0 of 6. The survivor count (dose: 100.0 mg/kg/injection, schedule: Q04DX003 (ip), vehicle: alcohol) was 2 of 4, the survivor count (dose: 200.0 mg/kg/injection, schedule: Q04DX003 (ip), vehicle: alcohol) was 0 of 4 and the survivor count (dose: 400.0 mg/kg/injection, schedule: Q04DX003 (ip), vehicle: alcohol) was 0 of 4.
Cc1ccc(Nc2nc(N)nc(N)c2N=O)cc1C was tested, and the survivor count [14] was 0 of 3 and the survivor count [15] was 3 of 3.
With CCS(=O)(=O)C(Br)CBr (configuration not stated) the survivor count [5] was 4 of 6, the survivor count (dose: 200.0 mg/kg/injection, schedule: Q01DX009 (ip), vehicle: Klucel (hydroxypropylcellulose) (HPC)) was 1 of 6 and the survivor count (dose: 400.0 mg/kg/injection, schedule: Q01DX009 (ip), vehicle: Klucel (hydroxypropylcellulose) (HPC)) was 1 of 6. For the same molecule, the survivor count (dose: 400.0 mg/kg/injection, schedule: Q04DX002 (ip), vehicle: Klucel (hydroxypropylcellulose) (HPC)) was 1 of 3.
For CCOC(=O)N1C=Cn2c(cnc2C)C1OCC (configuration not stated), the survivor count (dose: 400.0 mg/kg/injection, schedule: Q04DX003 (ip), vehicle: saline) was 2 of 6.
For CCC([N+](=O)[O-])S(=O)(=O)c1ccc(C)cc1 (configuration not stated), the survivor count [4] was 6 of 6.
With C=CCc1ccc(OCCOCCN(C)C2CCCCC2)c(OC)c1 the survivor count [6] was 1 of 6 and the survivor count [7] was 0 of 6.
With N/C(=N\N=C\c1ccccn1)c1ccccn1 the survivor count (dose: 5.0 mg/kg/injection, schedule: Q01DX001 (ip), vehicle: water) was 4 of 4, the survivor count (dose: 20.0 mg/kg/injection, schedule: Q01DX001 (ip), vehicle: water) was 4 of 4 and the survivor count (dose: 40.0 mg/kg/injection, schedule: Q01DX001 (ip), vehicle: water) was 0 of 4. For the same molecule, the survivor count (dose: 50.0 mg/kg/injection, schedule: Q01DX001 (ip), vehicle: water) was 0 of 4, the survivor count (dose: 80.0 mg/kg/injection, schedule: Q01DX001 (ip), vehicle: water) was 0 of 4 and the survivor count (dose: 100.0 mg/kg/injection, schedule: Q01DX001 (ip), vehicle: water) was 0 of 4. For the same molecule, the survivor count (dose: 200.0 mg/kg/injection, schedule: Q01DX001 (ip), vehicle: water) was 0 of 4 and the survivor count (dose: 400.0 mg/kg/injection, schedule: Q01DX001 (ip), vehicle: water) was 0 of 4.
With CC1=CC(=O)C=CC1=Nc1cc(Cl)c(O)c(Cl)c1 the survivor count [12] was 0 of 4 and the survivor count [13] was 0 of 4.
In the case of CCCCOC(=O)c1ccc(OC(=O)Nc2ccc([N+](=O)[O-])cc2OC)cc1, the survivor count (dose: 400.0 mg/kg/injection, schedule: Q01DX009 (ip), vehicle: other) is reported as 4 of 6.
With CN(N=O)C(=O)NCCCNC(=O)N(C)N=O the T/C (dose: 50.0 mg/kg/injection, schedule: Q01DX Z (ip), vehicle: carboxymethylcellulose (CMC)) was 141 % of control, the T/C (dose: 200.0 mg/kg/injection, schedule: Q01DX Z (ip), vehicle: carboxymethylcellulose (CMC)) was 146 % of control and the T/C (dose: 600.0 mg/kg/injection, schedule: Q01DX001 (ip), vehicle: carboxymethylcellulose (CMC)) was 136 % of control [7 of 10 alive]. For the same molecule, the survivor count (dose: 1200.0 mg/kg/injection, schedule: Q01DX001 (ip), vehicle: carboxymethylcellulose (CMC)) was 1 of 10, the T/C (dose: 1200.0 mg/kg/injection, schedule: Q01DX001 (ip), vehicle: saline) was 126 % of control and the survivor count (dose: 2400.0 mg/kg/injection, schedule: Q01DX001 (ip), vehicle: carboxymethylcellulose (CMC)) was 0 of 10. The T/C (dose: 2400.0 mg/kg/injection, schedule: Q01DX001 (ip), vehicle: saline) was 145 % of control [9 of 10 alive].
NC(N)=N/N=C/c1cccc(Cl)c1 was tested, and the survivor count (dose: 60.0 mg/kg/injection, schedule: Q01DX Z (ip), vehicle: saline) was 3 of 6 and the survivor count (dose: 120.0 mg/kg/injection, schedule: Q01DX Z (ip), vehicle: saline) was 0 of 6.
In the case of Cc1ccc(/C=N/N)s1, the survivor count (dose: 400.0 mg/kg/injection, schedule: Q04DX003 (ip), vehicle: other) is reported as 6 of 6.
CSc1ccc(NC(=O)Oc2cc3ccccc3cc2C(=O)Nc2ccc(Cl)cc2)cc1 was tested, and the survivor count (dose: 100.0 mg/kg/injection, schedule: Q04DX002 (ip), vehicle: saline with Tween-80) was 3 of 3.
CC(NC(=O)C1CC2c3cccc4[nH]cc(c34)CC2N(C)C1)C(C)(C)C (configuration not stated) was tested, and the survivor count [14] was 2 of 6, the survivor count [10] was 1 of 6 and the survivor count [15] was 0 of 6.
For O=C(NCC(O)CNC(=O)Nc1ccc(C2=NCCN2)cc1)Nc1ccc(C2=NCCN2)cc1, the T/C (dose: 7.5 mg/kg/injection, schedule: Q01DX Z (ip), vehicle: carboxymethylcellulose (CMC)) was 128 % of control, the T/C (dose: 42.0 mg/kg/injection, schedule: Q01DX Z (ip), vehicle: carboxymethylcellulose (CMC)) was 145 % of control and the survivor count (dose: 168.0 mg/kg/injection, schedule: Q01DX Z (ip), vehicle: carboxymethylcellulose (CMC)) was 1 of 6.
